Source: PubChem BioAssay AID652259 (Drosophila RNAi Screening Center, 2013)
Aim: 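Identify new Wingless signalling regulators in fly cells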 (primary screen). System: Drosophila clone 8 imaginal disc epithelial cells. Reagent: long dsRNA against Drosophila genes. Challenge: pathway stimulated by co-transfected Wingless expression plasmid. Detection: 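Firefly luciferase from a tcf-site Wingless reporter, measured alongside co-transfected Renilla luciferase that tracks transfection; pathway stimulated by a Wingless plasmid; the firefly-to-Renilla ratio is not deposited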. Scale: firefly reporter light: higher = more Wg reporter light, before normalisation; Renilla control light: higher = more transfected or surviving cells. Rule for the call: 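Strong candidates differ from their plate mean by at least two out of four per-plate statistical tests; weak candidates meet just one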. Calls: active = candidate regulator (raises or lowers reporter); inactive = not a candidate.
The deposit covers about 22,000 reagents; below is an unselected part of those that have a named target and a result. Over the whole deposit, 233 (1.1%) got an active call. 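Light values are raw, unnormalised plate reads; the ratio scores behind the reporter calls were not deposited.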 Unmarked entries are inactive. Names joined by + are all predicted targets of the reagent. Not given: the amount of reagent, the time to read-out, the dose of the treatment.

predicted target	DRSC id	firefly reporter light, replicate 1	firefly reporter light, replicate 2	Renilla control light, replicate 1	Renilla control light, replicate 2
Dci	DRSC08360	3287		933	
Ir7f	DRSC18012	16907		8560	
His3:CG33818 + His3:CG33857 + His3:CG33806 + 20 more	DRSC21267	13584		986	
geko	DRSC10044	8336		2800	
geko	DRSC10045	7686		3600	
Nopp140	DRSC11872	21568		6804	
pasi2	DRSC16380	11898		2070	
CG15916	DRSC19740	16736		7431	
CG34187 (retired record) + Trpm	DRSC05543	23836		18040	
CG12934	DRSC06247	2368	4663	295	1671
Obp57c + Obp57b	DRSC21914	2.47e5	2.97e5	1.10e5	1.23e5

The list goes on, starting with the last 4 of the part before.
predicted target	DRSC id	firefly reporter light, replicate 1	firefly reporter light, replicate 2	Renilla control light, replicate 1	Renilla control light, replicate 2
CG15916	DRSC19740	16736		7431	
CG34187 (retired record) + Trpm	DRSC05543	23836		18040	
CG12934	DRSC06247	2368	4663	295	1671
Obp57c + Obp57b	DRSC21914	2.47e5	2.97e5	1.10e5	1.23e5
Atpalpha	DRSC14119	3740	5843	1497	1693
MED10	DRSC10474	8592		3591	
CG18417	DRSC10319	1270	7648	1140	3468
CG33310	DRSC01897	3532	3891	1061	1914
CG9686	DRSC18439	18613		7584	
Sod3	DRSC07324	10962		4068	
CG8701	DRSC07237	6288		2592	
CG33143	DRSC04151	4053	7388	963	3491
CG33143	DRSC04454	2368	6601	472	1900
mRpS35	DRSC08551	7067		1953	
CG4704	DRSC15628	16409		15042	
mRpS33	DRSC14239	42172		7397	
CG4553	DRSC15595	24617		17883	
CG42597	DRSC03681	13851		7276	
PIG-F	DRSC11069	16876		5794	
CG30344	DRSC22510	7.80e5	8.11e5	3.68e5	1.94e5
CG11409	DRSC18579	1677	4216	1220	1250
Rph	DRSC17790	15913		7408	
